This note sets out measurements from PubChem BioAssay AID445 (National Center for Advancing Translational Sciences (NCATS), 2006).

The experiment is described as follows: IkB Signaling. Particulars: ABC-DLBCL IkBa-CBG/CBR dual luciferase ratio (green luciferase fused to IkBa over red control in OCI-Ly3 lymphoma cells), 4 h. The procedure, abridged:
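In this assay, an IκBα–CBG68 fusion accumulates when IKK-driven degradation is blocked; native CBR normalizes for cell number. OCI-Ly3 cells were treated 4 h with compound and doxycycline, then green and red light read after Chroma-Glo addition.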

Where [1] appears, read: measured here: control luc red channel unless noted.
[2] abbreviates: measured here: IkB-luc green channel.
[3] abbreviates: measured here: control luc red channel.

The list shows a part of the results. Further columns of the screen follow, without active or inactive calls. Compounds called inactive in the main read-out are mostly missing here. The note in brackets gives the kind of curve behind each potency; many fits are weak.

Regarding `CC1=C(C(=O)OC2CCCC2)C(c2c(F)cccc2Cl)CC(=O)N1` (stereo unspecified), the AC50 under setting [1] is 39.8 µM [falling, single point].

`COC(=O)c1cccc2c1-c1ccccc1/C2=N/O`: the AC50 was 7.94 µM [falling, partial curve] under setting [2] and 15.8 µM [falling, partial curve] under setting [3].

Consider `CCOC(=O)c1c(S(=O)(=O)N2CCC(C(=O)NCc3cccc(OC)c3)CC2)c(C)n(C)c1C`, for which the AC50 under setting [1] was 0.00631 µM [rising, full curve, poor fit].

Regarding `CCC(C)(C)n1nnnc1C(c1cc2cc(OC)c(OC)cc2[nH]c1=O)N1CCc2ccccc21` (stereo unspecified), the AC50 under setting [1] was 31.6 µM [falling, single point].

For `Cc1cccc(N(C)C(=O)Cn2c(=O)oc3cc(S(=O)(=O)N4CCCCC4)ccc32)c1`, the AC50 under setting [1] is 31.6 µM [falling, single point].

Consider `Cn1ccnc1SCC(=O)Nc1cccc(Br)c1`, for which the AC50 under setting [1] was 1.58 µM [rising, full curve, poor fit].

For the compound `CCN1CCc2c(sc(NC(=O)c3ccc(S(=O)(=O)N4CCCC(C)C4)cc3)c2C(=O)OC)C1` (stereo unspecified), the AC50 under setting [1] is 12.6 µM [falling, single point].

`Cc1ccccc1Cn1c(CN2CCC(C(=O)NCc3ccc(Cl)cc3)CC2)cc2ccccc21`: the AC50 under setting [1] was 31.6 µM [falling, partial curve].

Turning to `Cc1cc(C)c(OCC(=O)N(Cc2ccc(N(C)C)cc2)Cc2ccco2)c(C)c1`, the AC50 under setting [1] is 15.8 µM [falling, partial curve].

As for `O=C(NCc1ccc2c(c1)OCO2)c1ccc2c(c1)N(Cc1c(F)cccc1Cl)C(=O)c1ccccc1S2`, the AC50 under setting [1] is 2.51 µM [falling, single point].

Take `CCOc1ccc(NS(=O)(=O)c2ccc3c(c2)NC(=O)CCS3)cc1`: the AC50 under setting [1] was 12.6 µM [falling, partial curve].

Take `COc1ccc(C2=NC(c3ccccc3)=Nc3ccc(C)cc3N2)cc1`: under setting [1], the AC50 is 25.1 µM [falling, single point].

As for `O=C1c2ccccc2C(=O)C1(O)O`, the AC50 is 39.8 µM [rising, partial curve] under setting [2] and 31.6 µM [falling, partial curve] under setting [3].

Regarding `COc1ccccc1N1CCN(CC(O)COc2ccc(Cl)c(C)c2)CC1` (stereo unspecified), under setting [1], the AC50 was 39.8 µM [falling, single point].

Turning to `CN1CCN(C(=O)c2ccc3c(c2)N(Cc2ccc(F)cc2)C(=O)c2ccccc2S3(=O)=O)CC1`, the AC50 under setting [1] is 5.01 µM [falling, partial curve, poor fit].

`O=C(CSc1n[nH]c(-c2ccc(F)cc2)n1)N1CCN(c2ccc(F)cc2)CC1`: the AC50 under setting [1] is 39.8 µM [falling, single point].

For `Cc1nc2ccn(Cc3ccco3)c(=O)c2cc1C(=O)NCc1ccc(Cl)cc1`, the AC50 under setting [1] is 39.8 µM [falling, single point].

With `Cc1ccc(CNC(=O)c2ccc3c(c2)CCN3S(=O)(=O)c2ccc(Br)cc2)cc1`, the concentration at half-maximal activity (AC50) under setting [1] is 6.31 µM [falling, partial curve].

As for `COc1ccc(N2CC(NC(=O)C3CCCCC3)CC2=O)cc1` (stereo unspecified), the AC50 under setting [1] was 5.01 µM [rising, partial curve].

As for `CCn1c(SCC(=O)Nc2cc(C)ccc2F)nnc1-c1ccccc1O`, under setting [1], the AC50 was 25.1 µM [falling, single point].

Turning to `c1ccc(-c2noc(-c3cccc4ccccc34)n2)nc1`, the AC50 under setting [1] is 12.6 µM [falling, partial curve].

Consider `N=C1Sc2ccccc2C2=NCCCN12`, for which the AC50 under setting [1] is 25.1 µM [rising, partial curve, poor fit] [measured here: IkB-luc green channel].

Regarding `COc1ccc(N(C(=O)c2ccccc2C)S(=O)(=O)c2ccc(Cl)cc2)cc1`, the AC50 under setting [1] was 3.16 µM [falling, full curve, poor fit].

On to `Nc1ncc(S(=O)(=O)NCc2ccccc2)cn1`, for which the AC50 under setting [1] is 0.01 µM [rising, full curve, poor fit].

For `COc1cc(S(=O)(=O)NCCc2c(C)[nH]c3ccc(C)cc23)ccc1Br`, the AC50 under setting [1] is 15.8 µM [falling, partial curve].

As to `O=C(NCCc1nc2ccccc2n1Cc1ccccc1F)c1ccc(F)cc1`, the AC50 under setting [1] was 0.316 µM [falling, partial curve].

With `O=C(C1CCC1)N1CCCc2cc(S(=O)(=O)N3CCN(c4cccc(Cl)c4)CC3)ccc21`, the AC50 under setting [1] is 12.6 µM [falling, partial curve, poor fit].

For the compound `CCOCc1cc(CN2CCN(c3cccc(C(F)(F)F)c3)CC2)c(O)c2ncccc12`, the AC50 under setting [1] was 5.01 µM [falling, partial curve].

In the case of `c1ccc(-c2nnc3n2NC(c2ccc4c(c2)OCO4)S3)cc1` (stereo unspecified), under setting [1], the AC50 was 7.94 µM [falling, partial curve].

Turning to `COc1ccc(OC)c(S(=O)(=O)Nc2ccc(O)c3ccccc23)c1`, under setting [1], the AC50 is 2 µM [falling, full curve].

As to `COc1ccccc1NC(=O)c1cc2ccc(O)cc2o/c1=N\O`, under setting [1], the AC50 is 7.94 µM [falling, partial curve].

As for `CCOc1ccccc1NC(=O)COC(=O)CC(C)(C)CC1=NS(=O)(=O)c2ccccc2N1`, the AC50 under setting [1] is 20 µM [falling, partial curve].

In the case of `Cc1onc(-c2ccccc2Cl)c1C(=O)Oc1ccc(Cl)cc1Cl`, the AC50 under setting [1] is 39.8 µM [falling, single point].

On to `COc1ccc(CCN2C(=O)c3[nH]nc(-c4ccccc4O)c3C2c2cccc(O)c2)cc1OC` (stereo unspecified), for which, under setting [1], the AC50 is 25.1 µM [falling, single point].

For `Cc1csc(NC(=O)Nc2ccc(Cl)cc2)n1`, the AC50 under setting [1] is 10 µM [falling, partial curve].

`CCOC(=O)N1CCc2c(sc3c2c(=O)n(Cc2ccccc2)c(=O)n3CC(=O)Nc2ccc(F)cc2)C1`: the AC50 under setting [1] was 31.6 µM [falling, partial curve].

For the compound `O=C(Nc1cc(Cl)cc(Cl)c1)c1cc(S(=O)(=O)NC2CCCC2)ccc1F`, the half-maximal activity concentration (AC50) under setting [1] was 15.8 µM [falling, partial curve].

On to `Cc1cccc(N2CCN(C(=O)C3CCN(C(=O)c4cc5sccc5n4C)CC3)CC2C)c1` (stereo unspecified), for which the AC50 under setting [1] was 20 µM [falling, partial curve].

As to `COc1ccc(CN(C)c2ccc(-c3nc(-c4ccc(OC)c(OC)c4)no3)cc2[N+](=O)[O-])cc1`, under setting [1], the AC50 was 7.94 µM [falling, partial curve].
